# Whole data set: some 1,900 compounds, median “excess over highest single agent (ExcessHSA) synergy score, 6x6 matrix” near -83, cut for the lowest 2% near -370. Some of the results follow.
# System: NCI-H446
# Test: excess over highest single agent (ExcessHSA) synergy score, 6x6 matrix; higher = less synergy (more negative = stronger synergy)
# Settings: 72 h; CellTiter-Glo viability
row,SMILES,excess over highest single agent
1,Cn1cc(-c2[nH]c3cc(NC(=O)[C@H](N)C4CCCCC4)cc4c3c2C=NNC4=O)cn1 + Cc1sc2c(c1C)C(c1ccc(Cl)cc1)=N[C@@H](CC(=O)OC(C)(C)C)c1nnc(C)n1-2 [NCGC00250412-19],16.8
2,COC(=O)[C@]12CCC(C)(C)C[C@H]1[C@H]1C(=O)C=C3[C@@]4(C)C=C(C#N)C(=O)C(C)(C)[C@@H]4CC[C@@]3(C)[C@]1(C)CC2 + Cc1sc2c(c1C)C(c1ccc(Cl)cc1)=N[C@@H](CC(=O)OC(C)(C)C)c1nnc(C)n1-2 [NCGC00250412-19],-219
3,CCCCC[C@H](O)/C=C/[C@H]1[C@H](O)CC(=O)[C@@H]1CCCCCCC(=O)O + Cc1sc2c(c1C)C(c1ccc(Cl)cc1)=N[C@@H](CC(=O)OC(C)(C)C)c1nnc(C)n1-2 [NCGC00250412-19],-120
4,CC[C@@H]([C@H](C)O)n1ncn(-c2ccc(N3CCN(c4ccc(OC[C@@H]5CO[C@@](Cn6cncn6)(c6ccc(F)cc6F)C5)cc4)CC3)cc2)c1=O + Cc1sc2c(c1C)C(c1ccc(Cl)cc1)=N[C@@H](CC(=O)OC(C)(C)C)c1nnc(C)n1-2 [NCGC00250412-19],-10.1
5,CN1CCC[C@@H]1CCO[C@](C)(c1ccccc1)c1ccc(Cl)cc1 + Cc1sc2c(c1C)C(c1ccc(Cl)cc1)=N[C@@H](CC(=O)OC(C)(C)C)c1nnc(C)n1-2 [NCGC00250412-19],-191
6,COc1cc2ncnc(Nc3ccc(F)c(Cl)c3)c2cc1OCCCN1CCOCC1 + Cc1sc2c(c1C)C(c1ccc(Cl)cc1)=N[C@@H](CC(=O)OC(C)(C)C)c1nnc(C)n1-2 [NCGC00250412-19],-96.6
7,C[C@]12CCC(=O)C(O)=C1CC[C@@H]1[C@@H]2CC[C@]2(C)C(=O)CC[C@@H]12 + Cc1sc2c(c1C)C(c1ccc(Cl)cc1)=N[C@@H](CC(=O)OC(C)(C)C)c1nnc(C)n1-2 [NCGC00250412-19],-209
8,C=C(c1ccc(C(=O)O)cc1)c1cc2c(cc1C)C(C)(C)CCC2(C)C + Cc1sc2c(c1C)C(c1ccc(Cl)cc1)=N[C@@H](CC(=O)OC(C)(C)C)c1nnc(C)n1-2 [NCGC00250412-19],-177
9,CC[N+](CC)(CC)CCOc1cccc(OCC[N+](CC)(CC)CC)c1OCC[N+](CC)(CC)CC + Cc1sc2c(c1C)C(c1ccc(Cl)cc1)=N[C@@H](CC(=O)OC(C)(C)C)c1nnc(C)n1-2 [NCGC00250412-19],-41.8
10,O=c1[nH]nc(Sc2ncc([N+](=O)[O-])s2)n1-c1ccc2c(c1)OCCO2 + Cc1sc2c(c1C)C(c1ccc(Cl)cc1)=N[C@@H](CC(=O)OC(C)(C)C)c1nnc(C)n1-2 [NCGC00250412-19],-126

# A different layout for part of the listing above:
row | SMILES | excess over highest single agent
8 | C=C(c1ccc(C(=O)O)cc1)c1cc2c(cc1C)C(C)(C)CCC2(C)C + Cc1sc2c(c1C)C(c1ccc(Cl)cc1)=N[C@@H](CC(=O)OC(C)(C)C)c1nnc(C)n1-2 [NCGC00250412-19] | -177
9 | CC[N+](CC)(CC)CCOc1cccc(OCC[N+](CC)(CC)CC)c1OCC[N+](CC)(CC)CC + Cc1sc2c(c1C)C(c1ccc(Cl)cc1)=N[C@@H](CC(=O)OC(C)(C)C)c1nnc(C)n1-2 [NCGC00250412-19] | -41.8

# Reference: the supplement of paper PMC10077471
